Data as given in paper doi:10.1101/2023.12.02.569451.
Like-named read-outs stand apart in the source and are kept apart here. These are yes or no findings as the source states them, for the method shown. Binding seen in cells or lysates may run through a third protein. A yes stands for co-enrichment or nearness to the bait. Other partners may have been found.

By UniProt entry, the sequences of proteins in these tests, tags left out.
UniProt Q15022: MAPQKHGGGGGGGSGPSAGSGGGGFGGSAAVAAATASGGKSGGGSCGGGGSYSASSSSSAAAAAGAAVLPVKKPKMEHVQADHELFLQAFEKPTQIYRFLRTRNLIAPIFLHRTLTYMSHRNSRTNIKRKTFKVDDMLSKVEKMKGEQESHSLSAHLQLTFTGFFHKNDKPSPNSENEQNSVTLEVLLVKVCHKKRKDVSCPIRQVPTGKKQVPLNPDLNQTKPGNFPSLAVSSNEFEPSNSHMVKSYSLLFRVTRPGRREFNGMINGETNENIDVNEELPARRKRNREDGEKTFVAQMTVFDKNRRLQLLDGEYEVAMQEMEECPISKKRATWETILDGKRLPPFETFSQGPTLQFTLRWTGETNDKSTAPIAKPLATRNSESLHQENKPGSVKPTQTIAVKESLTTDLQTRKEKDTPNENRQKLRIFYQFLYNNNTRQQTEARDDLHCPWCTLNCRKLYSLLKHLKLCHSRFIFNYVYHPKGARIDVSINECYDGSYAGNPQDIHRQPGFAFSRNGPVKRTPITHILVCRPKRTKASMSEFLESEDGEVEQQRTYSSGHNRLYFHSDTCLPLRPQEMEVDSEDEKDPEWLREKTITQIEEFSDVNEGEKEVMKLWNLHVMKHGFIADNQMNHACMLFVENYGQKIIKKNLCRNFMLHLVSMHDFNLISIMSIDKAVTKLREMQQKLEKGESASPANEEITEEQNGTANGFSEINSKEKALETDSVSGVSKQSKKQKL
UniProt Q15910: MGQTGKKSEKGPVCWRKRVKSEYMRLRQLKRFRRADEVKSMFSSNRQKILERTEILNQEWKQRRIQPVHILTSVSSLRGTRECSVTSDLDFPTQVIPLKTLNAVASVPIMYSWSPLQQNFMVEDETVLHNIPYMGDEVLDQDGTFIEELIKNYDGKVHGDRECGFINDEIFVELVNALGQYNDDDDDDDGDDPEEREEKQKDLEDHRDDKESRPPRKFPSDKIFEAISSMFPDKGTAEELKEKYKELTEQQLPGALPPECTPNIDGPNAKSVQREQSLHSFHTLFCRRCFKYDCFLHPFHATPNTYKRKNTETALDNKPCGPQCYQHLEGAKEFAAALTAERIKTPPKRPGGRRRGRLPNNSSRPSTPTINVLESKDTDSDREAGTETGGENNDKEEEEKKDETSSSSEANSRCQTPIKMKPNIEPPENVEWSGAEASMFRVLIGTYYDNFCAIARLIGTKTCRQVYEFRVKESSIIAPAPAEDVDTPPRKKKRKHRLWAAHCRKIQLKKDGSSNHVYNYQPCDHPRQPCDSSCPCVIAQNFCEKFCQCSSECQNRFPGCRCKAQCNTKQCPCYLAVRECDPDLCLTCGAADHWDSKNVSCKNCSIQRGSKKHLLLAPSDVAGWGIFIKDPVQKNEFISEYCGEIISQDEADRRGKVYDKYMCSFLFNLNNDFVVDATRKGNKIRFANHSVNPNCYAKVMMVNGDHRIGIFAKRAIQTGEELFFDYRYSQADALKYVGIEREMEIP
UniProt P35226: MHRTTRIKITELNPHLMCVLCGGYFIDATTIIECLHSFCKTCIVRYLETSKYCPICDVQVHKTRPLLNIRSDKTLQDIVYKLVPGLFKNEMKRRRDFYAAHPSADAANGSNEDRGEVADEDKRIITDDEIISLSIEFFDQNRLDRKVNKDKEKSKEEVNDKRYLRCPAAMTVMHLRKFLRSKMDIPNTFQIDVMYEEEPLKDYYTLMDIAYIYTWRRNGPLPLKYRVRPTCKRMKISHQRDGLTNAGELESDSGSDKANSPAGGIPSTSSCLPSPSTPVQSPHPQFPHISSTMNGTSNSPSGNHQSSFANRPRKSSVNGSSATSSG
UniProt Q99496: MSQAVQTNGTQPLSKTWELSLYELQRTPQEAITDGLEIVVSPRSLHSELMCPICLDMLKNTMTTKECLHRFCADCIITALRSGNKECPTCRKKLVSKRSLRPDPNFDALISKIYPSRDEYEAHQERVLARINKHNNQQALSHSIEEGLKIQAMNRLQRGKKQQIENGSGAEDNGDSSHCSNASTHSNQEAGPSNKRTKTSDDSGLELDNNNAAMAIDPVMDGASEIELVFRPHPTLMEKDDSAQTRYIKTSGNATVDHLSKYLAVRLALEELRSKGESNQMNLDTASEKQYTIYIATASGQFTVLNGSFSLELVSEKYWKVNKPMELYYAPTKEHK
UniProt O43189: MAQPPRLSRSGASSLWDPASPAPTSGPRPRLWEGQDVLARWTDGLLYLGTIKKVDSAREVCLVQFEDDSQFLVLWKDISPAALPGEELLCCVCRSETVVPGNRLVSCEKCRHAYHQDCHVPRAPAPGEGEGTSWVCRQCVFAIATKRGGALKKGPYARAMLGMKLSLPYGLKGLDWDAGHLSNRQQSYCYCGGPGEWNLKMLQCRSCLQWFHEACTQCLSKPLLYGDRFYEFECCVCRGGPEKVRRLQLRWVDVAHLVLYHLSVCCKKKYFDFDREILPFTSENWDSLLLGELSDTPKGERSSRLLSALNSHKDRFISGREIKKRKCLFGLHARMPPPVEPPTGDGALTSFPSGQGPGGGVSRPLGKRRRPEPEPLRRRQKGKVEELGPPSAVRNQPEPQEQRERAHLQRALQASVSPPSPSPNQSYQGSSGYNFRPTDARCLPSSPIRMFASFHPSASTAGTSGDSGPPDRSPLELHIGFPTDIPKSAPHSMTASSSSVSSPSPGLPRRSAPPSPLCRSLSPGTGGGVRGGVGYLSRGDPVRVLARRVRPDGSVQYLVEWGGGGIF
UniProt A6NHQ4: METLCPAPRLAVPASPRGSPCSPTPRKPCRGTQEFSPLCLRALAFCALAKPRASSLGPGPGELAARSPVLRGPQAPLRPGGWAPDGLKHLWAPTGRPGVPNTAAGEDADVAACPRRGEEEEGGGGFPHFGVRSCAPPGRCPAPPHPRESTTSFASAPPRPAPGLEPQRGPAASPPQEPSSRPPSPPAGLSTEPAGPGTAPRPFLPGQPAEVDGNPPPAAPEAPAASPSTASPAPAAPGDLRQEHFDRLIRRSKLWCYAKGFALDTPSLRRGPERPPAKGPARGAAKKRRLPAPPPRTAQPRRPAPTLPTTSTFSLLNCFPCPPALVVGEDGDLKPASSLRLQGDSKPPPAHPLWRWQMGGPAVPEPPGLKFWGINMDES
UniProt Q9Y483: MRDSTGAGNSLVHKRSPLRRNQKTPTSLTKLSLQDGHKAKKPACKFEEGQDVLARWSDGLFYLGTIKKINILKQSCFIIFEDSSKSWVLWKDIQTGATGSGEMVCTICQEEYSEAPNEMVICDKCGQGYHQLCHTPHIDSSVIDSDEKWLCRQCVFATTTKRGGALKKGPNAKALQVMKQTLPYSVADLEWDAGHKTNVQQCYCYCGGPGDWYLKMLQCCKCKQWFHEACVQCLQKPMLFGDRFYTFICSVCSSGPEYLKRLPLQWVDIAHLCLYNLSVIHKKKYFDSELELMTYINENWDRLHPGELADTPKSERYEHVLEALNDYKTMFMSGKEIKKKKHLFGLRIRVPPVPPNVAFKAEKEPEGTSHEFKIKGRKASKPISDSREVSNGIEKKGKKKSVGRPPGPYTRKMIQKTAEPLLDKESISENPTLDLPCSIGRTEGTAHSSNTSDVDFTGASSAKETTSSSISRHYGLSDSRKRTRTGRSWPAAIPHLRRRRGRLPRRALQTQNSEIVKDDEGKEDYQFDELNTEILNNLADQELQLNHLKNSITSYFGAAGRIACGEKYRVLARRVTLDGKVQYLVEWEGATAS
UniProt Q14781: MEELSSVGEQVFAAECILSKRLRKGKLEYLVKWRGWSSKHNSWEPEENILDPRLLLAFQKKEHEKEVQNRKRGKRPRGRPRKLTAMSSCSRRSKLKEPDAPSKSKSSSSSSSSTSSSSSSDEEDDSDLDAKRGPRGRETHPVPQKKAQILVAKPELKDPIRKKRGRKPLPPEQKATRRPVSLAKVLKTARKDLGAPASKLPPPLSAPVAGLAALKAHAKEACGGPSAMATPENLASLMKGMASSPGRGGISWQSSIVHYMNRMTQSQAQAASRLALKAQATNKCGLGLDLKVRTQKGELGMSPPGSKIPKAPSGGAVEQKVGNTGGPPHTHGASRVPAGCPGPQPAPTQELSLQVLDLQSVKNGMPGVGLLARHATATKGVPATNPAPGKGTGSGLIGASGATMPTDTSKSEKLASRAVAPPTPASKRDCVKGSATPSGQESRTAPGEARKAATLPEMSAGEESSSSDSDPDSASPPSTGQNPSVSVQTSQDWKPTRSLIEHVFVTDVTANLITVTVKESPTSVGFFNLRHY
UniProt Q86SE9: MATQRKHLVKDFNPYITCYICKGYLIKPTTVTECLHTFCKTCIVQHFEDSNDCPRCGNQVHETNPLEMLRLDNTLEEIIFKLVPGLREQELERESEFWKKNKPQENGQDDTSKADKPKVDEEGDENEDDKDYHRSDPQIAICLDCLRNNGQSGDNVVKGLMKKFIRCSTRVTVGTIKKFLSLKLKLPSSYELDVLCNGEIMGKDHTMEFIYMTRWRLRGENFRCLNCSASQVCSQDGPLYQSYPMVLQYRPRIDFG
UniProt Q06587: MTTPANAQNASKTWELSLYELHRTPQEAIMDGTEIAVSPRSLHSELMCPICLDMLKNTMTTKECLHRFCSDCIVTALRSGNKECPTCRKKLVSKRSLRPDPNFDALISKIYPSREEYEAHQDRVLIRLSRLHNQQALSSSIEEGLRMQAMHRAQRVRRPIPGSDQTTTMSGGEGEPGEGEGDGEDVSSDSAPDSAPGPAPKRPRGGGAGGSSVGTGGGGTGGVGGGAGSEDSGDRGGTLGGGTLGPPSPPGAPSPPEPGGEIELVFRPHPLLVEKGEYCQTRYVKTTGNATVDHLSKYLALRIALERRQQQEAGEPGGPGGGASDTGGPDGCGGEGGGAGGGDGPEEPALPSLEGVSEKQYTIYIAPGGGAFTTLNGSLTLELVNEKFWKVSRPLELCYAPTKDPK

Columns and labels:
Assay in all cases: affinity purification with mass spectrometry
[1] = molecular target: SUZ12 (human (endogenous in HSJD-DIPG-007)) (UniProt Q15022)
[2] = molecular target: EZH2 (human (endogenous in HSJD-DIPG-007)) (UniProt Q15910)
[3] = molecular target: PCGF4 (human (endogenous in HSJD-DIPG-007 and DIPGXIII)) (UniProt P35226)
[4] = molecular target: RING1B (human (endogenous in HSJD-DIPG-007 and DIPGXIII)) (UniProt Q99496)
[5] = molecular target: EZH2 (human (endogenous in HSJD-DIPG-007)), Q15910; conditions: remark: other sources report otherwise
[6] = molecular target: RING1B (human (endogenous in HSJD-DIPG-007 and DIPGXIII)) (UniProt Q99496); remark: listed apart in the source
[7] = molecular target: PCGF4 (human (endogenous in HSJD-DIPG-007 and DIPGXIII)) (UniProt P35226); remark: listed apart in the source

With PHF1 (from UniProt O43189 1-567) the binding [1] was “binds” and the binding [2] was “binds”.

With EPOP (from UniProt A6NHQ4 1-379) the binding [2] was “binds”.

In the case of MTF2 (from UniProt Q9Y483 1-593), the binding [1] is reported as “binds” and the binding [2] is reported as “binds”.

In the case of CBX2 (from UniProt Q14781 1-532), the binding [3] is reported as “binds”.

For PCGF5 (from UniProt Q86SE9 1-256), the binding [4] was “binds”.

With RING1A (from UniProt Q06587 1-406) the binding [3] was “binds”.

B1: EZH1, Q92800 1-747 (protein)
chain: MEIPNPPTSKCITYWKRKVKSEYMRLRQLKRLQANMGAKALYVANFAKVQEKTQILNEEWKKLRVQPVQSMKPVSGHPFLKKCTIESIFPGFASQHMLMRSLNTVALVPIMYSWSPLQQNFMVEDETVLCNIPYMGDEVKEEDETFIEELINNYDGKVHGEEEMIPGSVLISDAVFLELVDALNQYSDEEEEGHNDTSDGKQDDSKEDLPVTRKRKRHAIEGNKKSSKKQFPNDMIFSAIASMFPENGVPDDMKERYRELTEMSDPNALPPQCTPNIDGPNAKSVQREQSLHSFHTLFCRRCFKYDCFLHPFHATPNVYKRKNKEIKIEPEPCGTDCFLLLEGAKEYAMLHNPRSKCSGRRRRRHHIVSASCSNASASAVAETKEGDSDRDTGNDWASSSSEANSRCQTPTKQKASPAPPQLCVVEAPSEPVEWTGAEESLFRVFHGTYFNNFCSIARLLGTKTCKQVFQFAVKESLILKLPTDELMNPSQKKKRKHRLWAAHCRKIQLKKDNSSTQVYNYQPCDHPDRPCDSTCPCIMTQNFCEKFCQCNPDCQNRFPGCRCKTQCNTKQCPCYLAVRECDPDLCLTCGASEHWDCKVVSCKNCSIQRGLKKHLLLAPSDVAGWGTFIKESVQKNEFISEYCGELISQDEADRRGKVYDKYMSSFLFNLNNDFVVDATRKGNKIRFANHSVNPNCYAKVVMVNGDHRIGIFAKRAIQAGEELFFDYRYSQADALKYVGIERETDVL
With B1 the binding [5] was “binds”.

B2: CBX4 (protein, UniProt O00257 1-560)
chain: MELPAVGEHVFAVESIEKKRIRKGRVEYLVKWRGWSPKYNTWEPEENILDPRLLIAFQNRERQEQLMGYRKRGPKPKPLVVQVPTFARRSNVLTGLQDSSTDNRAKLDLGAQGKGQGHQYELNSKKHHQYQPHSKERAGKPPPPGKSGKYYYQLNSKKHHPYQPDPKMYDLQYQGGHKEAPSPTCPDLGAKSHPPDKWAQGAGAKGYLGAVKPLAGAAGAPGKGSEKGPPNGMMPAPKEAVTGNGIGGKMKIVKNKNKNGRIVIVMSKYMENGMQAVKIKSGEVAEGEARSPSHKKRAADERHPPADRTFKKAAGAEEKKVEAPPKRREEEVSGVSDPQPQDAGSRKLSPTKEAFGEQPLQLTTKPDLLAWDPARNTHPPSHHPHPHPHHHHHHHHHHHHAVGLNLSHVRKRCLSETHGEREPCKKRLTARSISTPTCLGGSPAAERPADLPPAAALPQPEVILLDSDLDEPIDLRCVKTRSEAGEPPSSLQVKPETPASAAVAVAAAAAPTTTAEKPPAEAQDEPAESLSEFKPFFGNIIITDVTANCLTVTFKEYVTV
With B2 the binding [6] was “binds” and the binding [7] was “binds”.

B3: CBX6 (protein, UniProt O95503 1-412)
chain: MELSAVGERVFAAESIIKRRIRKGRIEYLVKWKGWAIKYSTWEPEENILDSRLIAAFEQKERERELYGPKKRGPKPKTFLLKARAQAEALRISDVHFSVKPSASASSPKLHSSAAVHRLKKDIRRCHRMSRRPLPRPDPQGGSPGLRPPISPFSETVRIINRKVKPREPKRNRIILNLKVIDKGAGGGGAGQGAGALARPKVPSRNRVIGKSKKFSESVLRTQIRHMKFGAFALYKPPPAPLVAPSPGKAEASAPGPGLLLAAPAAPYDARSSGSSGCPSPTPQSSDPDDTPPKLLPETVSPSAPSWREPEVLDLSLPPESAATSKRAPPEVTAAAGPAPPTAPEPAGASSEPEAGDWRPEMSPCSNVVVTDVTSNLLTVTIKEFCNPEDFEKVAAGVAGAAGGGGSIGASK
With B3 the binding [6] was “binds” and the binding [7] was “binds”.
